No constants are given. Whether binding was seen depends on the method and setting. In cells and extracts the contact can be indirect. Here binding means that the protein was enriched with, or labelled near, the bait; the list need not be complete. No binding means not detected with the bait.

Amino acid sequences for entries named in this document (tags omitted).
UniProt P98170: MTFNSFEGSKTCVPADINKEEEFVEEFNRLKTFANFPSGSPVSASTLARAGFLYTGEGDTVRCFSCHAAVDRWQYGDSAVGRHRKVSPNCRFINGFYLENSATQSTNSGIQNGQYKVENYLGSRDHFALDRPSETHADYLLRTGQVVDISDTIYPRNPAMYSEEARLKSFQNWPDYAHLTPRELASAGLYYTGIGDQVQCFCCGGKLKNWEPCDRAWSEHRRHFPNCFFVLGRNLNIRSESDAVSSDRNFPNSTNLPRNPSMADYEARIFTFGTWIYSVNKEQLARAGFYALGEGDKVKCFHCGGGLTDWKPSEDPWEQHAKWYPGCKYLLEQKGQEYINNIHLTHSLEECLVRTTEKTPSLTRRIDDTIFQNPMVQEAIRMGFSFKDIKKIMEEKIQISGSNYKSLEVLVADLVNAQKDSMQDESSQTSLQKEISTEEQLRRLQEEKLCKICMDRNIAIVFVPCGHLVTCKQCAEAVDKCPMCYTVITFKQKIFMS
UniProt Q9NR09: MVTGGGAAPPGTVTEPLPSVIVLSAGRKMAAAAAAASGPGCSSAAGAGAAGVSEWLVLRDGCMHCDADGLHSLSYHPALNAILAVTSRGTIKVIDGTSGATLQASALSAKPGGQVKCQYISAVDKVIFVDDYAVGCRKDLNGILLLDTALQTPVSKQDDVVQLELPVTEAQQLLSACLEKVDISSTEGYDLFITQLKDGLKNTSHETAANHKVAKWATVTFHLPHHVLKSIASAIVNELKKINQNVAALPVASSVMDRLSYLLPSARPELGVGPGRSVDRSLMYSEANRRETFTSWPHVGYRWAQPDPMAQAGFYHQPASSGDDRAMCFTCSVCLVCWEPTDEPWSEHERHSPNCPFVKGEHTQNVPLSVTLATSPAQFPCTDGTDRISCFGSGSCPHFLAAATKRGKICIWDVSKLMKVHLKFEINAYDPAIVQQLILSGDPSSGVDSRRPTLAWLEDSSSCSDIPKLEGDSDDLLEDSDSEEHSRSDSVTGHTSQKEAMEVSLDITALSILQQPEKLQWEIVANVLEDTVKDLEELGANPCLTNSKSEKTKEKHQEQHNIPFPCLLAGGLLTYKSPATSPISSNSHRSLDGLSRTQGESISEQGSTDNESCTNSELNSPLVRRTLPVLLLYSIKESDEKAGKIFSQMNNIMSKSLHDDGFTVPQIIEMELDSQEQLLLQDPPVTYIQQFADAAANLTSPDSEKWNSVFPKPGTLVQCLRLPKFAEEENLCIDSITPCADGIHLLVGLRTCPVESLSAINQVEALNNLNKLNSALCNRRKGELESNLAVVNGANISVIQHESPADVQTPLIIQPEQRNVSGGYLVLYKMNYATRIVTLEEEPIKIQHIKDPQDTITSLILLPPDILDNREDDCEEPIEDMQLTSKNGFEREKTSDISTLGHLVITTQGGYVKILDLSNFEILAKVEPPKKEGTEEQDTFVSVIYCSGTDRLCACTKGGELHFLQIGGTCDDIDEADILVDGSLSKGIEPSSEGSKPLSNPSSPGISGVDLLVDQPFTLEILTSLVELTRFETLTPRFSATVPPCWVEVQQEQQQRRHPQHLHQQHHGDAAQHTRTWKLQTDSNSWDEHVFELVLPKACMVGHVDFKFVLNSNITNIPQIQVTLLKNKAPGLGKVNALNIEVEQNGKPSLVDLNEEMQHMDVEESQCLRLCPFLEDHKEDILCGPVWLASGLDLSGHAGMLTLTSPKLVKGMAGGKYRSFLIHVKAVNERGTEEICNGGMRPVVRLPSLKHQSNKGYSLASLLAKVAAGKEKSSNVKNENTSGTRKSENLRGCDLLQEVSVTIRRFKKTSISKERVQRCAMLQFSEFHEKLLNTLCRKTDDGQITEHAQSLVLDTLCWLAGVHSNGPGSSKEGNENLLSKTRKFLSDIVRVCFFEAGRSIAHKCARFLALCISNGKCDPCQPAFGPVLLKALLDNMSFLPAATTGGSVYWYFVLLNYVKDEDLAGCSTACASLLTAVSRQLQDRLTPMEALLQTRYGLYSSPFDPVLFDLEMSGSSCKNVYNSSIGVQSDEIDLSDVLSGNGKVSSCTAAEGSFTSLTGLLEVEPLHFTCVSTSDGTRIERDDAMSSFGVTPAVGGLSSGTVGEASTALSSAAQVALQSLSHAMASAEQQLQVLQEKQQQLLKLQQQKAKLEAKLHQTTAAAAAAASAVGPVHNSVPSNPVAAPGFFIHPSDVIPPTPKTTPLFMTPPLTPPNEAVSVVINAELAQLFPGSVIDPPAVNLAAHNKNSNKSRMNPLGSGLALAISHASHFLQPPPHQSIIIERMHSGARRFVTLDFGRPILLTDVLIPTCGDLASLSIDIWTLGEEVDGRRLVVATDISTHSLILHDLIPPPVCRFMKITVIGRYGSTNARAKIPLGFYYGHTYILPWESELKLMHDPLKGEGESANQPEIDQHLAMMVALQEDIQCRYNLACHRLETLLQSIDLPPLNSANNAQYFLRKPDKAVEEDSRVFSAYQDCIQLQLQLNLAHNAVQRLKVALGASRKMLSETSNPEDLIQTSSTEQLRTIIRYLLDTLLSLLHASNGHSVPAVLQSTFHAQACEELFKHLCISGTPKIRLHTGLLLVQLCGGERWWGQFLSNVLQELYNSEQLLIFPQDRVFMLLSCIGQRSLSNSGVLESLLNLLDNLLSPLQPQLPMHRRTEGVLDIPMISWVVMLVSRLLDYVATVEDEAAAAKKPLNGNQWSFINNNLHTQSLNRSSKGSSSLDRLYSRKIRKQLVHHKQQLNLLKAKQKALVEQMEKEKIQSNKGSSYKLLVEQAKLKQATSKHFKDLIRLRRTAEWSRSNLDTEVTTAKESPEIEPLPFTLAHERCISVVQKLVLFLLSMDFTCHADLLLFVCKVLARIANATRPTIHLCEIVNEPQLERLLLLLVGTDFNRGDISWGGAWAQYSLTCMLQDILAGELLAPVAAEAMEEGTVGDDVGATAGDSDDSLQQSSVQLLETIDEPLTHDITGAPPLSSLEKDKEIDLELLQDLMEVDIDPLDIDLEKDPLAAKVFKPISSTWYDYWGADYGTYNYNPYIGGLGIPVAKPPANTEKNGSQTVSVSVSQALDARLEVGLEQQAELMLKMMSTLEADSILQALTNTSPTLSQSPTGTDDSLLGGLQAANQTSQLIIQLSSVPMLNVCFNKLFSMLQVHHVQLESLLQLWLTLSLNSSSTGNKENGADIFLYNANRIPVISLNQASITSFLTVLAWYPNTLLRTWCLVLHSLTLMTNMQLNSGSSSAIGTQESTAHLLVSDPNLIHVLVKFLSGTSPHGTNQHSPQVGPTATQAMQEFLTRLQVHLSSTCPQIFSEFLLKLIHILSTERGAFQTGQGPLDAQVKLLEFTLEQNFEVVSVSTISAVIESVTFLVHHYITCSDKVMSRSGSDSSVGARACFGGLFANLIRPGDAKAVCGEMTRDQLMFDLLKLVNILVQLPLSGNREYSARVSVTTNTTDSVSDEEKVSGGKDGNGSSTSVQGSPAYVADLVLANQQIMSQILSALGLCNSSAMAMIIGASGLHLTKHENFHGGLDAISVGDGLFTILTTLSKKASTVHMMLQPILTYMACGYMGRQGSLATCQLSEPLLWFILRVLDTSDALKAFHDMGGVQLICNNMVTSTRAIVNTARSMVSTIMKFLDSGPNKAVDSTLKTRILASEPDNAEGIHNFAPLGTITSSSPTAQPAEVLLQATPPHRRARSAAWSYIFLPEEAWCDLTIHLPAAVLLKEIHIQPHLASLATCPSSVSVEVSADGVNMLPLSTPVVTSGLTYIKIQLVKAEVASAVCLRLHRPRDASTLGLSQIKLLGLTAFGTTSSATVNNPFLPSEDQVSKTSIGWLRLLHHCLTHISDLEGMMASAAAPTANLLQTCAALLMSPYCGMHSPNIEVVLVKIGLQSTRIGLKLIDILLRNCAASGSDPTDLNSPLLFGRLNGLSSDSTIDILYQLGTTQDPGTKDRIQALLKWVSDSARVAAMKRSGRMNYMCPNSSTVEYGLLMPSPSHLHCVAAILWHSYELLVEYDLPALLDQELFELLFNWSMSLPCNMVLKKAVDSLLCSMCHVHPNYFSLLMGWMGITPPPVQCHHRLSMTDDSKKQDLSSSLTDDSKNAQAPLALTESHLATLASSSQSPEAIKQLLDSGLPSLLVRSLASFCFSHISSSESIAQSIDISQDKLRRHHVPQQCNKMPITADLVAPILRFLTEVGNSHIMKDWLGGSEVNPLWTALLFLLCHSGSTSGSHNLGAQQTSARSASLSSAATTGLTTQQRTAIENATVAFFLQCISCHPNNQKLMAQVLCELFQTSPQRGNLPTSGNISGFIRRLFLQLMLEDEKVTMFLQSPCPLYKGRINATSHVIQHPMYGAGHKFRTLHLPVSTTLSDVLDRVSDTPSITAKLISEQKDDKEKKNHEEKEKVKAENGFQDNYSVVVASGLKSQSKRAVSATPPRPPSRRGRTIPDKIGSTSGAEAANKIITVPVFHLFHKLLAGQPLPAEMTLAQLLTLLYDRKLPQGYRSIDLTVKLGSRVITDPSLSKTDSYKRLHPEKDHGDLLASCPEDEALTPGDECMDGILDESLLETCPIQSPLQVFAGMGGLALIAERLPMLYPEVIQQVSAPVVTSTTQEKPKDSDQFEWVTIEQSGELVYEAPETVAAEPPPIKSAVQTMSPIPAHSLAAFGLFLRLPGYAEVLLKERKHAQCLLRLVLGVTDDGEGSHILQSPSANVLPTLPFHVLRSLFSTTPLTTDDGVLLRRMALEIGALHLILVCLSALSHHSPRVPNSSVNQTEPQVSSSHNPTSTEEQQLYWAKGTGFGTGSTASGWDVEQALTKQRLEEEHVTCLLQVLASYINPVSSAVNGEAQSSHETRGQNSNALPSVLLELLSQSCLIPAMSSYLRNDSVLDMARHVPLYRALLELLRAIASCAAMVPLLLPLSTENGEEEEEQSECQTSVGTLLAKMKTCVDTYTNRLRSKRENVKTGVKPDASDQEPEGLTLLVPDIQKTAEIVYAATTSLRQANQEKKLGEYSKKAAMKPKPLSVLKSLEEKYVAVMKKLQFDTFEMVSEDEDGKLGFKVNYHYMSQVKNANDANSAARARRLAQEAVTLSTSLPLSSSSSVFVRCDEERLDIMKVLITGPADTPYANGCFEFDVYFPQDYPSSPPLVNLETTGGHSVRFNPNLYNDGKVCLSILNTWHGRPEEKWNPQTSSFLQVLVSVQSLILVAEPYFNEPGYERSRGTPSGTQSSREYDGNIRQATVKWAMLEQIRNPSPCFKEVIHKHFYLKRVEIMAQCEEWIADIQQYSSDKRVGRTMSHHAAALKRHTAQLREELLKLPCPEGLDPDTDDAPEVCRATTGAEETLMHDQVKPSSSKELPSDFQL
UniProt Q13489: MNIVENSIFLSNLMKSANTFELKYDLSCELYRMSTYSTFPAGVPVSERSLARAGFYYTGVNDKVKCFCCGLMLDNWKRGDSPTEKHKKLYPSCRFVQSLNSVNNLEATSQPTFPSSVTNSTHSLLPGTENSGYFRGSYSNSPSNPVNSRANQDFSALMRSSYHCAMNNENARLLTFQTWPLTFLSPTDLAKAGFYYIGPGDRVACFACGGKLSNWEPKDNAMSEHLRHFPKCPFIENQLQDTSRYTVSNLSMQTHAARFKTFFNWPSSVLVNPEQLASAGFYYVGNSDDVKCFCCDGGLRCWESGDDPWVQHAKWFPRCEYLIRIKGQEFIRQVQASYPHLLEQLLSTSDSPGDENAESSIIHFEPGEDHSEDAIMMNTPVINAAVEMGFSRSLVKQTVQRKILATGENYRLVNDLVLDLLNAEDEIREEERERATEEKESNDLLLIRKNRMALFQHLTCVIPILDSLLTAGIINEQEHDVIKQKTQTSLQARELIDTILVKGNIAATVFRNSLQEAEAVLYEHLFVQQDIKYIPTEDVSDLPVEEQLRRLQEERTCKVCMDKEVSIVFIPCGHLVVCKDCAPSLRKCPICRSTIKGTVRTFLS

Experiment in all cases: affinity purification with mass spectrometry; biotinylated peptides (10 µg per 20 µl slurry) on streptavidin beads, incubated with 1 mg HeLa lysate (2 mg/ml) in 150 mM KCl, 75 mM HEPES pH 7.5, 1.5 mM EGTA, 1.5 mM MgCl2, 10% glycerol, 1 mM DTT, 0.1% NP-40; label-free MS, pairwise comparison of peptides, triplicates; only the target purified
Experiment [1] has as its target T1, NH2-…-KK-Biotin, peptide of the partially processed (MAP-processed) N-terminus of EIF2A (human).
T1 sequence (peptide, free N-terminus; biotin at the C-terminal KK): APSTPLLTVRKK

In experiment [2] the target is T2, NH2-…-KK-Biotin, peptide of the DPP8/9-processed N-terminus of human AK2 with the first residue of the IBM, serine, mutated to valine (human).
T2 sequence (peptide, free N-terminus; biotin at the C-terminal KK): VVPAAEPEYPKK

In experiment [3] the target is T3, NH2-…-KK-Biotin, peptide of the N-terminus of human AK2 without MAP processing (human).
T3 sequence (peptide, free N-terminus; biotin at the C-terminal KK): MAPSVPAAEPKK

The target of experiment [4] is T4, NH2-…-KK-Biotin, peptide of the unprocessed N-terminus of EIF2A (human).
T4 sequence (peptide, free N-terminus; biotin at the C-terminal KK): MAPSTPLLTVKK

For experiment [5], the target named is T5, NH2-…-KK-Biotin, peptide derived from the N-terminus of STXBP2 after MAP and DPP8/9 processing.
T5 sequence (peptide, free N-terminus; biotin at the C-terminal KK): SGLKAVVGEKKK

In experiment [6] the target is T6, NH2-…-KK-Biotin, peptide of the N-terminus of mouse AK2 as it would exist after DPP8/9 cleavage (mouse).
T6 sequence (peptide, free N-terminus; biotin at the C-terminal KK): NVLASEPEIPKK

The target in experiment [7] is T7, NH2-…-KK-Biotin, peptide of the N-terminus of human AK2 without DPP8/9 cleavage (human).
T7 sequence (peptide, free N-terminus; biotin at the C-terminal KK): APSVPAAEPEKK

Consider XIAP (from UniProt P98170 1-497), for which the binding entry in experiment [1], in experiment [2], in experiment [3], in experiment [4], in experiment [5] and in experiment [6] was “no binding” in each case.
As for BIRC6 (from UniProt Q9NR09 1-4857), the binding entry in experiment [1], in experiment [2], in experiment [3], in experiment [4], in experiment [5] and in experiment [6] was “no binding” throughout. Further, the binding result in experiment [7] is on record as “no binding”.
Consider UBR5 (from UniProt O95071 1-2799), for which, in experiment [6], the binding result is “binds”.
Consider BIRC3 (from UniProt Q13489 1-604), for which the binding entry in experiment [1], in experiment [2], in experiment [3], in experiment [4], in experiment [5] and in experiment [6] was “no binding” throughout. Moreover, the binding entry in experiment [7] was “no binding”.

The values above are taken from PMC12152192.
